In the supplement of paper PMC4604168 (melanoma cell lines):
The list shows a part of the results. Single values are uncertain, as repeats are few or missing.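 Cells were imaged in 1,536-well plates, and nuclei stained with an antibody against cleaved PARP were counted against all DNA-stained nuclei to give the apoptosis fraction. Screening doses were chosen to leave most cells alive, and resting and induced cleaved-PARP levels differ strongly between cell lines.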

test system: WM451Lu; assay: cleaved PARP positive nuclei fraction relative to DMSO control; melanoma cells; higher = more apoptosis; settings: library dose: low library concentration; 72 h

SMILES | cleaved PARP positive nuclei fraction
CC(=O)c1c(C)c2cnc(Nc3ccc(N4CCNCC4)cn3)nc2n(C2CCCC2)c1=O [palbociclib] + Nc1cccc2c1CN(C1CCC(=O)NC1=O)C2=O [lenalidomide] (first compound 0.04 µM, partner dose 1 µM) | 58.3%
CC(=O)c1c(C)c2cnc(Nc3ccc(N4CCNCC4)cn3)nc2n(C2CCCC2)c1=O [palbociclib] + COc1ccc(Cl)c(Nc2nc3ccccc3nc2NS(=O)(=O)c2cccc(NC(=O)C(C)(C)N)c2)c1 [XL147] (first compound 0.04 µM, partner dose 0.8 µM) | 101%
CC(=O)c1c(C)c2cnc(Nc3ccc(N4CCNCC4)cn3)nc2n(C2CCCC2)c1=O [palbociclib] + Cc1nc(Nc2ncc(C(=O)Nc3c(C)cccc3Cl)s2)cc(N2CCN(CCO)CC2)n1 [dasatanib] (first compound 0.04 µM, partner dose 0.004 µM) | 106%
C=CCNC1=C2C[C@@H](C)C[C@H](OC)[C@H](O)[C@@H](C)/C=C(\C)[C@H](OC(N)=O)[C@@H](OC)/C=C\C=C(/C)C(=O)NC(=CC1=O)C2=O [Tanespimycin] + COc1ccc(Cl)c(Nc2nc3ccccc3nc2NS(=O)(=O)c2cccc(NC(=O)C(C)(C)N)c2)c1 [XL147] (first compound 0.002 µM, partner dose 0.8 µM) | 64.6%
OCc1c[nH]c2ccccc12 [Indole-3-carbinol] + C#Cc1cccc(Nc2ncnc3cc(OCCOC)c(OCCOC)cc23)c1 [erlotinib] (first compound 0.8 µM, partner dose 0.8 µM) | 89.3%
CC(=O)c1c(C)c2cnc(Nc3ccc(N4CCNCC4)cn3)nc2n(C2CCCC2)c1=O [palbociclib] + C[C@]1(c2nc3c(C(N)=O)cccc3[nH]2)CCCN1 [Veliparib] (first compound 0.04 µM, partner dose 1.4 µM) | 106%
C=CCNC1=C2C[C@@H](C)C[C@H](OC)[C@H](O)[C@@H](C)/C=C(\C)[C@H](OC(N)=O)[C@@H](OC)/C=C\C=C(/C)C(=O)NC(=CC1=O)C2=O [Tanespimycin] + C#Cc1cccc(Nc2ncnc3cc(OCCOC)c(OCCOC)cc23)c1 [erlotinib] (first compound 0.002 µM, partner dose 0.8 µM) | 95.1%
C=CCNC1=C2C[C@@H](C)C[C@H](OC)[C@H](O)[C@@H](C)/C=C(\C)[C@H](OC(N)=O)[C@@H](OC)/C=C\C=C(/C)C(=O)NC(=CC1=O)C2=O [Tanespimycin] + Clc1ccc(Nc2nnc(Cc3ccncc3)c3ccccc23)cc1 [vatalanib] (first compound 0.002 µM, partner dose 2 µM) | 111%
COCC[n+]1c2c(n(Cc3cnccn3)c1C)C(=O)c1ccccc1C2=O + Nc1cccc2c1CN(C1CCC(=O)NC1=O)C2=O [lenalidomide] (first compound 0.0004 µM, partner dose 1 µM) | 402%
C#Cc1cccc(Nc2ncnc3cc(OCCOC)c(OCCOC)cc23)c1 [erlotinib] + C[C@]1(c2nc3c(C(N)=O)cccc3[nH]2)CCCN1 [Veliparib] (first compound 0.8 µM, partner dose 1.4 µM) | 48.8%
CC(=O)c1c(C)c2cnc(Nc3ccc(N4CCNCC4)cn3)nc2n(C2CCCC2)c1=O [palbociclib] + C#Cc1cccc(Nc2ncnc3cc(OCCOC)c(OCCOC)cc23)c1 [erlotinib] (first compound 0.04 µM, partner dose 0.8 µM) | 126%
Nc1cccc2c1CN(C1CCC(=O)NC1=O)C2=O (configuration not stated) [lenalidomide] + COc1cc(Nc2ncc(F)c(Nc3ccc4c(n3)NC(=O)C(C)(C)O4)n2)cc(OC)c1OC [Tamatinib] (first compound 1 µM, partner dose 0.4 µM) | 56.1%
C[C@]1(c2nc3c(C(N)=O)cccc3[nH]2)CCCN1 [Veliparib] + CC(C)(C)c1cnc(CSc2cnc(NC(=O)C3CCNCC3)s2)o1 [SNS-032] (first compound 1.4 µM, partner dose 0.01 µM) | 203%
Cc1nc(Nc2ncc(C(=O)Nc3c(C)cccc3Cl)s2)cc(N2CCN(CCO)CC2)n1 [dasatanib] + Nc1cccc2c1CN(C1CCC(=O)NC1=O)C2=O [lenalidomide] (first compound 0.004 µM, partner dose 1 µM) | 120%
CC(=O)c1c(C)c2cnc(Nc3ccc(N4CCNCC4)cn3)nc2n(C2CCCC2)c1=O [palbociclib] + OCc1c[nH]c2ccccc12 [Indole-3-carbinol] (first compound 0.04 µM, partner dose 0.8 µM) | 38.3%
Clc1ccc(Nc2nnc(Cc3ccncc3)c3ccccc23)cc1 [vatalanib] + COCC[n+]1c2c(n(Cc3cnccn3)c1C)C(=O)c1ccccc1C2=O [YM155] (first compound 2 µM, partner dose 0.0004 µM) | 66.2%

SMILES | cleaved PARP positive nuclei fraction
CC1(C)NC(=O)N(c2ccc([N+](=O)[O-])c(C(F)(F)F)c2)C1=O [nilutamide] + O=C(Nc1cccc(Cl)c1)Nc1ncc(CCNc2ncnc3ccsc23)s1 [SNS314] (first compound 1 µM, partner dose 0.0008 µM) | 48.4%
Nc1cccc2c1CN(C1CCC(=O)NC1=O)C2=O (configuration not stated) [lenalidomide] + C[C@]1(c2nc3c(C(N)=O)cccc3[nH]2)CCCN1 [Veliparib] (first compound 1 µM, partner dose 1.4 µM) | 21.1%
OCc1c[nH]c2ccccc12 [Indole-3-carbinol] + COc1ccc(Cl)c(Nc2nc3ccccc3nc2NS(=O)(=O)c2cccc(NC(=O)C(C)(C)N)c2)c1 [XL147] (first compound 0.8 µM, partner dose 0.8 µM) | 114%
CC(=O)c1c(C)c2cnc(Nc3ccc(N4CCNCC4)cn3)nc2n(C2CCCC2)c1=O [palbociclib] + Clc1ccc(Nc2nnc(Cc3ccncc3)c3ccccc23)cc1 [vatalanib] (first compound 0.04 µM, partner dose 2 µM) | 98%
Cn1nnc2c(C(N)=O)ncn2c1=O [temozolomide] + C[C@@H]1CCN(C(=O)CC#N)C[C@@H]1N(C)c1ncnc2[nH]ccc12 [CP690550] (first compound 2 µM, partner dose 1 µM) | 45.7%
Cc1nc(Nc2ncc(C(=O)Nc3c(C)cccc3Cl)s2)cc(N2CCN(CCO)CC2)n1 [dasatanib] + Cn1nnc2c(C(N)=O)ncn2c1=O [temozolomide] (first compound 0.004 µM, partner dose 2 µM) | 66.5%
OCc1c[nH]c2ccccc12 [Indole-3-carbinol] + COCC[n+]1c2c(n(Cc3cnccn3)c1C)C(=O)c1ccccc1C2=O [YM155] (first compound 0.8 µM, partner dose 0.0004 µM) | 80.4%
Clc1ccc(Nc2nnc(Cc3ccncc3)c3ccccc23)cc1 [vatalanib] + C=CCn1c(=O)c2cnc(Nc3ccc(N4CCN(C)CC4)cc3)nc2n1-c1cccc(C(C)(C)O)n1 [MK1775] (first compound 2 µM, partner dose 0.02 µM) | 23.9%
C#Cc1cccc(Nc2ncnc3cc(OCCOC)c(OCCOC)cc23)c1 [erlotinib] + COCC[n+]1c2c(n(Cc3cnccn3)c1C)C(=O)c1ccccc1C2=O [YM155] (first compound 0.8 µM, partner dose 0.0004 µM) | 59.5%
Cc1nc(Nc2ncc(C(=O)Nc3c(C)cccc3Cl)s2)cc(N2CCN(CCO)CC2)n1 [dasatanib] + Cn1c(Nc2ccc(C(F)(F)F)cc2)nc2cc(Oc3ccnc(-c4ncc(C(F)(F)F)[nH]4)c3)ccc21 [CHIR265] (first compound 0.004 µM, partner dose 0.08 µM) | 675%
CC(C)(C)c1cnc(CSc2cnc(NC(=O)C3CCNCC3)s2)o1 + Cc1cc(N2CCOCC2)cc2[nH]c(-c3c(NC[C@@H](O)c4cccc(Cl)c4)cc[nH]c3=O)nc12 [BMS536924] (first compound 0.01 µM, partner dose 0.2 µM) | 243%
OCc1c[nH]c2ccccc12 [Indole-3-carbinol] + Nc1cccc2c1CN(C1CCC(=O)NC1=O)C2=O [lenalidomide] (first compound 0.8 µM, partner dose 1 µM) | 114%
Cn1c(Nc2ccc(C(F)(F)F)cc2)nc2cc(Oc3ccnc(-c4ncc(C(F)(F)F)[nH]4)c3)ccc21 + Nc1cccc2c1CN(C1CCC(=O)NC1=O)C2=O [lenalidomide] (first compound 0.08 µM, partner dose 1 µM) | 105%
Clc1ccc(Nc2nnc(Cc3ccncc3)c3ccccc23)cc1 [vatalanib] + Cc1nc(Nc2ncc(C(=O)Nc3c(C)cccc3Cl)s2)cc(N2CCN(CCO)CC2)n1 [dasatanib] (first compound 2 µM, partner dose 0.004 µM) | 144%
OCc1c[nH]c2ccccc12 [Indole-3-carbinol] + O=S(=O)(c1ccccc1)N(CC(F)(F)F)c1ccc(C(O)(C(F)(F)F)C(F)(F)F)cc1 [T0901317] (first compound 0.8 µM, partner dose 1.4 µM) | 147%
C=CCNC1=C2C[C@@H](C)C[C@H](OC)[C@H](O)[C@@H](C)/C=C(\C)[C@H](OC(N)=O)[C@@H](OC)/C=C\C=C(/C)C(=O)NC(=CC1=O)C2=O [Tanespimycin] + Nc1cccc2c1CN(C1CCC(=O)NC1=O)C2=O [lenalidomide] (first compound 0.002 µM, partner dose 1 µM) | 50.3%

Copied from the entries so far for reference:
SMILES | cleaved PARP positive nuclei fraction
C#Cc1cccc(Nc2ncnc3cc(OCCOC)c(OCCOC)cc23)c1 [erlotinib] + COCC[n+]1c2c(n(Cc3cnccn3)c1C)C(=O)c1ccccc1C2=O [YM155] (first compound 0.8 µM, partner dose 0.0004 µM) | 59.5%
Cc1nc(Nc2ncc(C(=O)Nc3c(C)cccc3Cl)s2)cc(N2CCN(CCO)CC2)n1 [dasatanib] + Cn1c(Nc2ccc(C(F)(F)F)cc2)nc2cc(Oc3ccnc(-c4ncc(C(F)(F)F)[nH]4)c3)ccc21 [CHIR265] (first compound 0.004 µM, partner dose 0.08 µM) | 675%
